# Reference: the supplement of paper PMC8728848
# The list shows a part of the results.
# Experiments:
# Experiment in all cases: glycan array binding signal (z-score within array); higher = stronger binding
# Conditions in all cases: glycan notation: IUPAC condensed, linker removed
# [1] = target: Neu5Ac(a2-6)GlcNAc(b1-4)GlcNAc(b1-4)GlcNAc
# Procedure, shortened: (§1)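 Arrays were curated from the Consortium for Functional Glycomics database, 3228 in total, and kept only where the protein sequence was available. Binding is expressed as a within-array Z-score. This score was averaged across arrays of the same protein sequence at different concentrations or buffers and across linkers, and negative values can be read as non-binding.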
# Neu5Ac(a2-8)Neu5Ac = target: Neu5Ac(a2-8)Neu5Ac
# Procedure, shortened: as §1
# [2] = target: Neu5Ac(a2-8)Neu5Ac(a2-3)Gal(b1-3)GalNAc(b1-4)[Neu5Ac(a2-3)]Gal(b1-4)Glc
# Procedure, shortened: as §1
# [3] = target: Neu5Ac(a2-8)Neu5Ac(a2-3)Gal(b1-3)GalNAc(b1-4)[Neu5Ac(a2-8)Neu5Ac(a2-3)]Gal(b1-4)Glc
# Procedure, shortened: as §1
# [4] = target: Neu5Ac(a2-8)Neu5Ac(a2-3)Gal(b1-4)Glc
# Procedure, shortened: as §1
# [5] = target: Neu5Ac(a2-8)Neu5Ac(a2-3)Gal(b1-4)GlcNAc
# Procedure, shortened: as §1
# [6] = target: Neu5Ac(a2-8)Neu5Ac(a2-3)[Gal(b1-3)GalNAc(b1-4)]Gal(b1-4)Glc
# Procedure, shortened: as §1
# [7] = target: Neu5Ac(a2-8)Neu5Ac(a2-3)[GalNAc(b1-4)]Gal(b1-4)Glc
# Procedure, shortened: as §1
# [8] = target: Neu5Ac(a2-8)Neu5Ac(a2-8)Neu5Ac
# Procedure, shortened: as §1
# [9] = target: Neu5Ac(a2-8)Neu5Ac(a2-8)Neu5Ac(a2-3)Gal(b1-4)Glc
# Procedure, shortened: as §1
# [10] = target: Neu5Ac(a2-8)Neu5Ac(a2-8)Neu5Ac(a2-3)[Gal(b1-3)GalNAc(b1-4)]Gal(b1-4)Glc
# Procedure, shortened: as §1
# [11] = target: Neu5Ac(a2-8)Neu5Ac(a2-8)Neu5Ac(a2-3)[GalNAc(b1-4)]Gal(b1-4)Glc
# Procedure, shortened: as §1
# [12] = target: Neu5Ac(a2-8)Neu5Ac(a2-8)Neu5Ac(a2-8)Neu5Ac(a2-3)[GalNAc(b1-4)]Gal(b1-4)Glc
# Procedure, shortened: as §1
# [13] = target: Neu5Ac(a2-8)Neu5Gc(a2-3)Gal(b1-4)GlcNAc
# Procedure, shortened: as §1
# [14] = target: Neu5Ac(b2-6)Gal(b1-4)GlcNAc
# Procedure, shortened: as §1
# Neu5Ac(b2-6)GalNAc = target: Neu5Ac(b2-6)GalNAc
# Procedure, shortened: as §1
# [15] = target: Neu5Ac9Ac(a2-3)Gal(b1-3)GlcNAc
# Procedure, shortened: as §1
# [16] = target: Neu5Ac9Ac(a2-3)Gal(b1-4)GlcNAc
# Procedure, shortened: as §1
# [17] = target: Neu5Ac9Ac(a2-6)Gal(b1-4)GlcNAc
# Procedure, shortened: as §1
# [18] = target: Neu5Gc(a2-3)Gal(b1-3)GlcNAc
# Procedure, shortened: as §1
# [19] = target: Neu5Gc(a2-3)Gal(b1-3)[Fuc(a1-4)]GlcNAc
# Procedure, shortened: as §1
# Neu5Gc(a2-3)Gal(b1-4)Glc = target: Neu5Gc(a2-3)Gal(b1-4)Glc
# Procedure, shortened: as §1
# [20] = target: Neu5Gc(a2-3)Gal(b1-4)GlcNAc
# Procedure, shortened: as §1
# [21] = target: Neu5Gc(a2-3)Gal(b1-4)GlcNAc(b1-3)Gal(b1-4)GlcNAc(b1-2)Man(a1-3)[Neu5Gc(a2-3)Gal(b1-4)GlcNAc(b1-3)Gal(b1-4)GlcNAc(b1-2)Man(a1-6)]Man(b1-4)GlcNAc(b1-4)GlcNAc
# Procedure, shortened: as §1
# [22] = target: Neu5Gc(a2-3)Gal(b1-4)[Fuc(a1-3)]GlcNAc
# Procedure, shortened: as §1
# [23] = target: Neu5Gc(a2-6)Gal(b1-4)GlcNAc
# Procedure, shortened: as §1
# Neu5Gc(a2-6)GalNAc = target: Neu5Gc(a2-6)GalNAc
# Procedure, shortened: as §1
# [24] = target: Neu5Gc(a2-8)Neu5Ac(a2-3)Gal(b1-4)GlcNAc
# Procedure, shortened: as §1
# [25] = target: Neu5Gc(a2-8)Neu5Gc(a2-3)Gal(b1-4)GlcNAc
# Procedure, shortened: as §1
# [26] = target: Neu5Gc(a2-8)Neu5Gc(a2-3)Gal(b1-4)GlcNAc(b1-3)Gal(b1-4)GlcNAc
# Procedure, shortened: as §1
# [27] = target: Neu5Gc(a2-8)Neu5Gc(a2-6)Gal(b1-4)GlcNAc
# Procedure, shortened: as §1
# [28] = target: Neu5Gc(b2-6)Gal(b1-4)GlcNAc
# Procedure, shortened: as §1
binder,measurement,setting,value
Agalectin (Anopheles gambiae) (protein) MSNRPFTAKFPRYPENGDEVFIRGKLKDDAKSFSVNFCLPRPAQVAEHQTPPYIALHFKTIYDERDDTSRVVLNWKNLQWQQEEVLDNYWHVDRSQTFRVVFRLHEDCIKVFVNSVDHPPDYQFPVQLPLDQIESIELWDDVEHVEEISFRYDNGNSY,glycan array binding signal (z-score),[1],-0.452
same,glycan array binding signal (z-score),Neu5Ac(a2-8)Neu5Ac,1.39
same,glycan array binding signal (z-score),[2],-0.061
same,glycan array binding signal (z-score),[3],0.647
same,glycan array binding signal (z-score),[4],-1.45
same,glycan array binding signal (z-score),[5],-0.855
same,glycan array binding signal (z-score),[6],-0.464
same,glycan array binding signal (z-score),[7],0.168
same,glycan array binding signal (z-score),[8],0.742
same,glycan array binding signal (z-score),[9],0.369
same,glycan array binding signal (z-score),[10],-0.035
same,glycan array binding signal (z-score),[11],-0.183
same,glycan array binding signal (z-score),[12],-0.422
same,glycan array binding signal (z-score),[13],-1.09
same,glycan array binding signal (z-score),[14],-0.879
same,glycan array binding signal (z-score),Neu5Ac(b2-6)GalNAc,-1.01
same,glycan array binding signal (z-score),[15],-0.958
same,glycan array binding signal (z-score),[16],-0.305
same,glycan array binding signal (z-score),[17],-0.921
same,glycan array binding signal (z-score),[18],0.15
same,glycan array binding signal (z-score),[19],-0.788
same,glycan array binding signal (z-score),Neu5Gc(a2-3)Gal(b1-4)Glc,-0.541
same,glycan array binding signal (z-score),[20],-0.288
same,glycan array binding signal (z-score),[21],-0.007
same,glycan array binding signal (z-score),[22],-0.729
same,glycan array binding signal (z-score),[23],-0.281
same,glycan array binding signal (z-score),Neu5Gc(a2-6)GalNAc,-0.611
same,glycan array binding signal (z-score),[24],-0.431
same,glycan array binding signal (z-score),[25],-0.636
same,glycan array binding signal (z-score),[26],0.981
same,glycan array binding signal (z-score),[27],-0.681
same,glycan array binding signal (z-score),[28],2.8

# Fetched one by one from above, 2 records:
binder,measurement,setting,value
Agalectin (Anopheles gambiae) (protein) MSNRPFTAKFPRYPENGDEVFIRGKLKDDAKSFSVNFCLPRPAQVAEHQTPPYIALHFKTIYDERDDTSRVVLNWKNLQWQQEEVLDNYWHVDRSQTFRVVFRLHEDCIKVFVNSVDHPPDYQFPVQLPLDQIESIELWDDVEHVEEISFRYDNGNSY,glycan array binding signal (z-score),[16],-0.305
same,glycan array binding signal (z-score),[15],-0.958
